# Values of other authors, collected in patent US20210145763A1, “LOW THC HEMP EXTRACT AND METHOD OF TREATMENT OR PREVENTION OF AN EYE DISEASE” (EYE CO PTY LTD, priority 2018, published 2021).
# At least one structure is not confirmed: it was looked up by name or label, or the drawing left a doubt.
# Tests used:
# [1] = molecular target: T1, mineralocorticoid receptor (Homo sapiens, UniProt P08235); settings: relative potency, hydrocortisone = 1
# T1 sequence (P08235 1-984): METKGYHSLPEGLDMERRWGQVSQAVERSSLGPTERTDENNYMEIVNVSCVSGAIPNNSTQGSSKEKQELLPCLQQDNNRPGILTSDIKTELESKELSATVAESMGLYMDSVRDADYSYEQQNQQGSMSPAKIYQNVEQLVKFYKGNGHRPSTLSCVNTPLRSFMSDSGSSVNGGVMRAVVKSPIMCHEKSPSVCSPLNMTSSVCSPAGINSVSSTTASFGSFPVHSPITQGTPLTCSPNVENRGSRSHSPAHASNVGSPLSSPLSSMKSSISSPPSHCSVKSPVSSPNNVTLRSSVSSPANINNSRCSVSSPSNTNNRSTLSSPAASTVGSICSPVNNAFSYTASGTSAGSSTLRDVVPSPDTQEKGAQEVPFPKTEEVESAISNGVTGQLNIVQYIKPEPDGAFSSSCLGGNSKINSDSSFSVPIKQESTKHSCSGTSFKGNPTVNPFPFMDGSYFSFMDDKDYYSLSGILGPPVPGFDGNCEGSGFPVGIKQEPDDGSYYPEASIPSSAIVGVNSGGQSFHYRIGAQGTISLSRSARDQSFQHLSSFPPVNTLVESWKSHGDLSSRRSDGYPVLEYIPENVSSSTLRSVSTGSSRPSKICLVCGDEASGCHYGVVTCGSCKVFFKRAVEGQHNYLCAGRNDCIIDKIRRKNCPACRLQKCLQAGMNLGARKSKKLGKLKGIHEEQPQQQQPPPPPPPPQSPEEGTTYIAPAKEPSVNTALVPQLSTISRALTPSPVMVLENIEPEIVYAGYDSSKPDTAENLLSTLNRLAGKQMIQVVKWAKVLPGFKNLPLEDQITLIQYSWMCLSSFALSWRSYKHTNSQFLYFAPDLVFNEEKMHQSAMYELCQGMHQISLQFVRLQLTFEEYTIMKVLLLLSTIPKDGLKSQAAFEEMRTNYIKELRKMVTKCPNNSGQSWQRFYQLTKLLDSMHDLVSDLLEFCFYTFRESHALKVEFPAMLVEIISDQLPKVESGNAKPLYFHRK
# glucocorticoid receptor = molecular target: T2, glucocorticoid receptor (Homo sapiens, UniProt P04150); settings: relative potency, hydrocortisone = 1
# T2 sequence (P04150 1-777): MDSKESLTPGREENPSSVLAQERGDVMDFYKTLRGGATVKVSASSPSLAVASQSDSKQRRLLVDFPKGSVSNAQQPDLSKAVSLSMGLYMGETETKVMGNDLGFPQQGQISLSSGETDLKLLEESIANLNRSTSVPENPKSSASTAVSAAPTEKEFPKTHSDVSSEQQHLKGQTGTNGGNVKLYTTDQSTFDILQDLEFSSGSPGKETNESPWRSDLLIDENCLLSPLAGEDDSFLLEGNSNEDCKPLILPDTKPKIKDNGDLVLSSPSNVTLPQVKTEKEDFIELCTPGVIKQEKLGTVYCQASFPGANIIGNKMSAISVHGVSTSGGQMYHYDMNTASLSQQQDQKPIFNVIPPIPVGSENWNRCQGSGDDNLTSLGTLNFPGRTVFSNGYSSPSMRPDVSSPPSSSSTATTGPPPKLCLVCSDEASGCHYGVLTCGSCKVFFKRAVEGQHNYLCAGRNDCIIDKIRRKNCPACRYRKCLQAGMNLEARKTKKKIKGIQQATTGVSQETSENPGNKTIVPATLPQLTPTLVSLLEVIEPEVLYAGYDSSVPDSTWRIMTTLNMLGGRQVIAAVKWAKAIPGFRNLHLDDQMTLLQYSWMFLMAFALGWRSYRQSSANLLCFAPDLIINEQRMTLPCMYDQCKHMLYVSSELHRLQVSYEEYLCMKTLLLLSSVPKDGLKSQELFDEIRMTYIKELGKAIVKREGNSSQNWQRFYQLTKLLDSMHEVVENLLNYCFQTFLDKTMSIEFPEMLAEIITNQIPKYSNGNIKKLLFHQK
compound,measurement,setting,value
C[C@H]1C[C@@H]2[C@H]([C@@H](O)C[C@@]3(C)[C@H]2CC[C@]3(O)C(=O)CO)[C@@]2(C)C=CC(=O)C=C12 [Methylprednisolone],MR potency,[1],0.5
same,GR potency,glucocorticoid receptor,5-7.5
